# Test results reported in patent US5780008A, “Polyhdric phenol compounds” (Mallinckrodt Medical, Inc., priority 1997, dated 1998).
# The name of at least one read-out is uncertain.
# Experiment: in vivo distribution studies in rats
# Conditions: post-injection
# Method: The in vivo distribution in rats is determined by injecting approx. 10μCi of the compound to be evaluated into the tail vein of the test animals. The test animals are sacrificed at appropriate time intervals after injection and the radioactivity of the organs of interest is measured by gamma scintillation counting.
smiles,measurement,value
O=C(CCc1ccc(O)c([125I])c1)c1c(O)cc(O)cc1O [3-^125 I-phloretin],time of maximum uptake in muscle (M/B),~30 min
same,time of maximum uptake in the heart (H/B),~15 min
